# Measured values as given in paper PMC8758478.
# The chains behind the UniProt entries cited, without tags or fusion partners. Residues count along the entry.
# UniProt P12023, residues 18-770: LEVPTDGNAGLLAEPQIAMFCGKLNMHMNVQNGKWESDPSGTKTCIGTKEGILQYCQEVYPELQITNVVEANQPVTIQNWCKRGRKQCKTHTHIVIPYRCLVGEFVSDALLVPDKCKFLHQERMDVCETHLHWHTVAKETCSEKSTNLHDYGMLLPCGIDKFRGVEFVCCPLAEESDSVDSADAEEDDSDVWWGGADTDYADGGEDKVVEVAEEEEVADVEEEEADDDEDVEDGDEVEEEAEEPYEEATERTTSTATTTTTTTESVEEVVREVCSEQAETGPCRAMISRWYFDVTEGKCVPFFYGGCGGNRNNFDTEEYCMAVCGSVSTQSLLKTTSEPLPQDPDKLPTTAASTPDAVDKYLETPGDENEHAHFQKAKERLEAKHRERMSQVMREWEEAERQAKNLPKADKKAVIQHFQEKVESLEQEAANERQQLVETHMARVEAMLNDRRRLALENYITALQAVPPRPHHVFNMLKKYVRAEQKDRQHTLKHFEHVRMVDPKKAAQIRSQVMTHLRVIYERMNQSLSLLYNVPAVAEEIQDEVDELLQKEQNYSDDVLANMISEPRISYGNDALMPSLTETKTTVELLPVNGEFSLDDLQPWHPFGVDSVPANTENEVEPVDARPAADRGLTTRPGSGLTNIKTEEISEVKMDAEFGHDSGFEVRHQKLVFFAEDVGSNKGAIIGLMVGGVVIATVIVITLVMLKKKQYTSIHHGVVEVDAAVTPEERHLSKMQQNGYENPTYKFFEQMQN
# No constants are given. Whether binding was seen depends on the method and setting. In cells and extracts the contact can be indirect. Some binding calls cover weakened binding; strength is not graded here.
# Biological target: T1, Lf (lactoferrin) of mouse brain (mouse (endogenous in mouse brain)) (UniProt P08071)
# T1 sequence: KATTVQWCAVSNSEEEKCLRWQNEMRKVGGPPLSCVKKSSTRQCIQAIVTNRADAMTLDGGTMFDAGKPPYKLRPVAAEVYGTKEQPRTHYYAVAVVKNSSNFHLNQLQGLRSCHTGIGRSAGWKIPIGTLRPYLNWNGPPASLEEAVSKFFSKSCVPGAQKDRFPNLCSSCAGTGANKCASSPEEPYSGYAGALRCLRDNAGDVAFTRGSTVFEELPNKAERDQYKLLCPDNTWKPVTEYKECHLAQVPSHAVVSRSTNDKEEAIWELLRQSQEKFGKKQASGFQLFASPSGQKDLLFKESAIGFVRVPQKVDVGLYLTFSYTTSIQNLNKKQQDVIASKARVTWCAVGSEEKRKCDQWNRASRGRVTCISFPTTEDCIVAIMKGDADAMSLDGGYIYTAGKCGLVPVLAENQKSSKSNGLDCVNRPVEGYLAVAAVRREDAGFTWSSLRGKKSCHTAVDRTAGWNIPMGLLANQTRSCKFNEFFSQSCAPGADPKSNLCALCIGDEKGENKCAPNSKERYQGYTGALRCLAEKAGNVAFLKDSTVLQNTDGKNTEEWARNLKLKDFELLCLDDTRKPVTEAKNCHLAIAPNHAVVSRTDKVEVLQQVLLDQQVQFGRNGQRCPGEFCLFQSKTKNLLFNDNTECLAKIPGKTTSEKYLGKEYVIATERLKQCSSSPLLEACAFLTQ
# Assay: co-IP; brain homogenate supernatant (100 μg, PBS with 1% Triton X-100) of wild-type and APP-/- mice on a normal or high-iron diet (8 days); anti-Lf (1:200) with protein G agarose, blot with anti-APP 22C11
substance,measurement,value
APP (amyloid precursor protein) of mouse brain (from UniProt P12023 18-770),binding,binds
